Paper doi:10.1101/2025.11.17.688879
Results are given in words; binding and its absence hold for the method and conditions named. For some assays here: In cells and extracts the contact can be indirect. Some entries that bind do so weakly or less than the wild type. For some assays here: Where a sequence is shown, tags or fusion partners need not be part of it. One block for each binder: values may come before it.

Columns and labels:
[1] = target: T1, MmFADS2-FLAG (fatty acid desaturase 2 of Mus musculus) (Mus musculus); test: co-IP
T1 sequence: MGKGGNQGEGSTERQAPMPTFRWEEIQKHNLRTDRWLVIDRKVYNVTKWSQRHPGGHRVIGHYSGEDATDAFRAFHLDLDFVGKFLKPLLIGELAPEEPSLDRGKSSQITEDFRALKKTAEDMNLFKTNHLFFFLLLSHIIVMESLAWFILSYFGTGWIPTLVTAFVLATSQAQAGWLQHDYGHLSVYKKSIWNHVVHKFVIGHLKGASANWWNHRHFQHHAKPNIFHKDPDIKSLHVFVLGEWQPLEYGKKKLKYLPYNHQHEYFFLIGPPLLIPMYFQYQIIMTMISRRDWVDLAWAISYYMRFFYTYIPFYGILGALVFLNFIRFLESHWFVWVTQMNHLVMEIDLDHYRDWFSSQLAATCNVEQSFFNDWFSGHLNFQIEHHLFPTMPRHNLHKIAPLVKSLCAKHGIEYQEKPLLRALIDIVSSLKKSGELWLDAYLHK

[2] = target: T2, HA-DrSTING stably expressed in MEF Sting-/- cells (MEF^DrSTING) (Danio rerio); test: co-IP
T2 sequence: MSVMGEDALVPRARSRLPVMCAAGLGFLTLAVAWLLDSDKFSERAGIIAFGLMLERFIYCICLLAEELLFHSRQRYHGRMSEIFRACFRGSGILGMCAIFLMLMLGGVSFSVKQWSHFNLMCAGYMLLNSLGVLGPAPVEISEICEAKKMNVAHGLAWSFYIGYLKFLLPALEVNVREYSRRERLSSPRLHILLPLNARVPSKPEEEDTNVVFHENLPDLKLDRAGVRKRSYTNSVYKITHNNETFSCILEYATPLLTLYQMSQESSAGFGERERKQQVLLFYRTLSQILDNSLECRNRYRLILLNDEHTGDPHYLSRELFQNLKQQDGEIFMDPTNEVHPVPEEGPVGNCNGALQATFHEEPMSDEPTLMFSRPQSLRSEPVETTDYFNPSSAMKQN

[3] = target: HA-NvSTING stably expressed in MEF Sting-/- cells (MEF^NvSTING) (Nematostella vectensis); test: co-IP
[4] = target: T3, HA-XtSTING stably expressed in MEF Sting-/- cells (MEF^XtSTING) (Xenopus tropicalis); test: co-IP
T3 sequence: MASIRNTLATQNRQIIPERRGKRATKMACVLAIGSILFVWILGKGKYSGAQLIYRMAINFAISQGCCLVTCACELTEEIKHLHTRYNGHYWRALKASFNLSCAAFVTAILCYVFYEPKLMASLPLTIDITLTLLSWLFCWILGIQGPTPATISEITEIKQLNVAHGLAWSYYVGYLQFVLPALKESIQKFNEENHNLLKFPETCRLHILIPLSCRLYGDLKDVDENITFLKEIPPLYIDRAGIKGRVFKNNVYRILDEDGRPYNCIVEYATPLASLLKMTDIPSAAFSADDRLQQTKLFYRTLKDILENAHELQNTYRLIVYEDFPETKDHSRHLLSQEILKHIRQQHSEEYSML

[5] = target: T4, HA-MbSTING stably expressed in MEF Sting-/- cells (MEF^MbSTING) (Monosiga brevicollis); test: co-IP
T4 sequence: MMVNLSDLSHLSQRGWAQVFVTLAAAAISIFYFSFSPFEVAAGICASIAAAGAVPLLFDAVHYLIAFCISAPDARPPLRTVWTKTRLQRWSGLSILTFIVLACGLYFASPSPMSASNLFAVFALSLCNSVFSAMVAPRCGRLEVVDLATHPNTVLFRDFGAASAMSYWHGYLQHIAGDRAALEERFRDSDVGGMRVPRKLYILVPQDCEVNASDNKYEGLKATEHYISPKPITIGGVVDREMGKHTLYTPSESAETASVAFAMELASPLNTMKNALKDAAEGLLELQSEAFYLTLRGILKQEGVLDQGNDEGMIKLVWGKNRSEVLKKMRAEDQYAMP

[6] = target: T5, HA-MmSTING stably expressed in MEF Sting-/- cells (MEF^MmSTING) (Mus musculus); test: co-IP
T5 sequence: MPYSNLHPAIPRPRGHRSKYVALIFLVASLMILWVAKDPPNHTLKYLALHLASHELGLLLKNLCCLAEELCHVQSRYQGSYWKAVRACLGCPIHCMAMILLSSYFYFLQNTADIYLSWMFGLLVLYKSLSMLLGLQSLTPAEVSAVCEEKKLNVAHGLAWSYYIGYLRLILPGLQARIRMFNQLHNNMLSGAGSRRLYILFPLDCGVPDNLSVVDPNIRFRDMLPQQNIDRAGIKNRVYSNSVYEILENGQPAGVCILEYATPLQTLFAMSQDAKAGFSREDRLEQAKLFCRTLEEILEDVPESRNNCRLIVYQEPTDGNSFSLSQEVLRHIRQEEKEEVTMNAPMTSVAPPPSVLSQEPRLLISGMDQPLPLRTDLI

[7] = target: T3, HA-XtSTING stably expressed in MEF Sting-/- cells (MEF^XtSTING) (Xenopus tropicalis); test: native gel or EMSA
[8] = target: T6, XtFADS2-FLAG (FADS2 of Xenopus tropicalis) (Xenopus tropicalis); test: co-IP
T6 sequence: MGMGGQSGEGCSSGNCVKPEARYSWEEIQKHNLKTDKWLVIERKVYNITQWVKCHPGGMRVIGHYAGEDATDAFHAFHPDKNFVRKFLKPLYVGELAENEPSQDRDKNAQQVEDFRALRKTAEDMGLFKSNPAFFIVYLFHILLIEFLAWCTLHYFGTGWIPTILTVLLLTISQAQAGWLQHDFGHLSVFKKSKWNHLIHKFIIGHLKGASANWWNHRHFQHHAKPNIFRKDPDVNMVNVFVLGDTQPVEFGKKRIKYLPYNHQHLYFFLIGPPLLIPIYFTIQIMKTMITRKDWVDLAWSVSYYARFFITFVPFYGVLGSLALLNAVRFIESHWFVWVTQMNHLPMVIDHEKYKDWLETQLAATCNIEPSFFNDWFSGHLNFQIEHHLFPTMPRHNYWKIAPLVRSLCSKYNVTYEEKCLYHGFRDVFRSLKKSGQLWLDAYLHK

B2: endogenous MmFADS2 (fatty acid desaturase 2 of mouse embryonic fibroblasts) (protein, UniProt Q9Z0R9 1-444)
chain: T1 sequence
binding [2]: binds
binding [3]: binds
binding [4]: binds
binding [5]: binds
binding [6]: binds

B3: HA-XtSTING stably expressed in MEF Sting-/- cells (MEF^XtSTING) (protein)
chain: T3 sequence
binding [7]: binds

The next lines start with the values.

binding [1]: binds
B1: HA-MmSTING (STING of Mus musculus), expressed in HEK 293T (protein)
chain: T5 sequence

binding [8]: no binding
B4: HA-XtSTING (STING of Xenopus tropicalis), expressed in HEK 293T (protein)
chain: T3 sequence
